# Data taken from PubChem BioAssay AID1688 (National Center for Advancing Translational Sciences (NCATS), 2009).
# Hit rate of the full screen: of about 220,000 compounds, about 2,400 (1.1%) were called active. The shares of active, inactive and inconclusive entries below differ from those in the screen. Calls follow the shape of the dose curve; as a rule, active = well fitted inhibition curve with a large enough effect; inconclusive = small, poorly fitted or top-dose-only effect, or effect the other way; inactive = no such curve, though single readings can be large or run the other way. A potency beside an inconclusive call is a rough fit, not a confirmed value.
# Test: qHTS Multiplex Assay to Identify Dual Action Probes in a Cell Model of Huntington: Aggregate Formation (GFP); also: nearly all actives have a fitted effect of over 60% in size
# Settings: PC12 HttQ103-GFP aggregates, Acumen cytometry, 40 h; activity change, negative = inhibition: at 46.1 µM (top of the series) unless noted
# Procedure, shortened: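 Multiplexed with ATP-based cell death, this channel scores GFP aggregates in PC12 cells expressing inducible HTTex1-Q103-GFP. Induction used 100 nM tebufenozide; compounds were tested in concentration series.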
# % is scaled to controls: 0 for no effect and ±100 for the full control effect; potency is read from the fitted curve at half-maximal effect.
SMILES,Potency,"activity change, negative = inhibition"
O=C(Nc1ccccc1F)c1ccccc1-c1ccccc1,"inconclusive: 35.5 µM [inhibitor, single point]",–
CC(=O)Oc1ccc2ccccc2c1C(NC(=O)Cc1ccccc1)c1ccccc1 (stereo not drawn),"inconclusive: 35.5 µM [inhibitor, single point]",–
O=C(Nc1ccccc1)C1CC=CCC1C(=O)OCC1CCCO1 (stereo not drawn),"inconclusive: 5.62 µM [activator, single point]",–
CCCCN1C2=C(C(=O)CCC2)C(c2ccc(Cl)c(Cl)c2)C2=C1c1ccccc1C2=O (stereo not drawn),"inconclusive: 35.5 µM [inhibitor, partial curve]",–
Cc1ccc(S(=O)(=O)Nc2ccc3nc(-c4cccn4C)[nH]c3c2)cc1,"inconclusive: 35.5 µM [inhibitor, single point]",–
O=c1c2ccccc2c(C=NCc2ccccn2)c(O)n1-c1ccccc1Cl,inactive,–
COc1ccc(C2CC(C(F)(F)F)n3nc(C(=O)N(C)Cc4cn(C)nc4C)c(Cl)c3N2)cc1 (stereo not drawn),inactive,–
Cc1ccc(C)c(CSc2nnc(-c3cccs3)n2Cc2ccco2)c1,"inconclusive: 35.5 µM [inhibitor, single point]",–
CCN(CC)CC(C(=O)N(CC)CC)P(=O)(c1ccccc1)c1ccccc1 (stereo not drawn),"inconclusive: 11.2 µM [activator, partial curve]",–
COc1cccc(C2CC(c3cccc(Br)c3)n3nc(N)nc3N2)c1 (stereo not drawn),inactive,–
Cc1ccc(NC(=O)c2c(C(=O)Nc3ccccc3)sc3nc(C)cc(=O)n23)cc1,"inconclusive: 0.501 µM [activator, full curve, poor fit]",–
Cc1c(Br)cc(C(=O)OC2CCN(C)CC2)c(C)c1C,inactive,–
Cc1ccc2nc(SCC(=O)N3c4ccccc4CC3C)c(C)cc2c1 (stereo not drawn),"inconclusive: 3.16 µM [activator, partial curve]",–
CSC1=N/C(=C\c2ccccc2Cl)C(=O)N1N(C)C,–,inactive: -17.6% [at 9.22 µM]
CCOCCCNC(=S)N1CCC(NC(=O)C23CC4CC(CC(C4)C2)C3)CC1,inactive,–
CN(C)Cc1ccccc1C1(O)c2ccccc2CSc2ccccc21 (stereo not drawn),"inconclusive: 35.5 µM [inhibitor, single point]",–
COc1ccc(-c2csc(=Nc3ccccc3)n2CCO)cc1,"inconclusive: 17.8 µM [inhibitor, single point]",–
COc1ccccc1C(=O)O/N=C(/C)c1ccc(N2C(=O)C3CCCCC3C2=O)cc1 (stereo not drawn),inactive,–
COc1ccccc1N1C[C@@H]2C[C@@H](c3ccco3)N3CCC[C@@]23C1=O,active: 7.08 µM,–
Cc1ccc(NC(=O)Cn2sc3nc(C)cc(C)c3c2=O)c(Cl)c1,–,inactive: 4.35% [at 9.22 µM]
CC1CCN(S(=O)(=O)c2cnc(Cl)c(Br)c2)CC1,"inconclusive: 3.98 µM [activator, single point]",–
CCN1CCc2c(sc(NC(=O)Nc3ccc(Cl)c(Cl)c3)c2C(N)=O)C1,active: 11.2 µM,–
COc1ccc(-c2c3c(=O)n(C)c(=O)n(C)c3cn2-c2ccccc2)cc1,"inconclusive: 0.794 µM [activator, full curve, poor fit]",–

SMILES,Potency,"activity change, negative = inhibition"
C=C(C)C1CCC(C)=C1CC(C)(C)/C=N\n1cnnc1 (stereo not drawn),"inconclusive: 14.1 µM [inhibitor, partial curve]",–
Cc1ccc(-c2nc(C3CCN(S(C)(=O)=O)CC3)no2)cc1,"inconclusive: 1.58 µM [activator, partial curve]",–
COc1cc2c3nnc(-c4ccc(F)cc4)c-3cn(Cc3cccc(F)c3)c2cc1OC,active: 10 µM,–
O=C(CSc1n[nH]c(C2CCCC2)n1)NC1CCCC1,"inconclusive: 10 µM [inhibitor, partial curve]",–
O=C(Cc1ccc(Nc2nc3ccc(Br)cc3[nH]2)cc1)NCCc1cccs1,"inconclusive: 35.5 µM [inhibitor, single point]",–
CCOC(=O)c1ccc(NC(=O)C2CC(=O)Nc3nc4ccccc4n32)cc1 (stereo not drawn),"inconclusive: 0.0316 µM [inhibitor, full curve, poor fit]",–
O=c1cc(-c2ccccc2)c2cc(Cl)c(O)c(CN3CCOCC3)c2o1,"inconclusive: 5.01 µM [inhibitor, single point]",–
COc1ccc(OC)c(C(=O)CSc2nnc(-c3ccc(OC)c(OC)c3)o2)c1,"inconclusive: 2.24 µM [inhibitor, partial curve]",–
CC(=O)Nc1cccc(-c2csc(Nc3cc(C)ccn3)n2)c1,"inconclusive: 35.5 µM [inhibitor, single point]",–
Cc1cc(Nc2cccc(F)c2)nc(-c2ccccc2O)n1,active: 25.1 µM,–
CCOC(=O)c1c(NC(=O)CSc2nncs2)sc(C)c1-c1ccccc1,"inconclusive: 25.1 µM [inhibitor, single point]",–
CSc1ccccc1NC(=O)c1cccnc1,"inconclusive: 5.62 µM [activator, single point]",–
Cc1ccc(S(=O)(=O)N2CCN(c3cc4c(cc3[N+](=O)[O-])n(C)c(=O)n4C)CC2)cc1,"inconclusive: 11.2 µM [inhibitor, partial curve]",–
CCOc1ccc(C(=O)Nc2c3c(nn2C(C)(C)C)CSC3)cc1OCC,"inconclusive: 3.55 µM [activator, partial curve]",–
Nn1cnnc1N/N=C\c1ccc(-c2ccccc2[N+](=O)[O-])o1,inactive,–
CC(C)(C)C(=O)NC(=S)NNC(=O)c1ccncc1,–,inactive: 22.5% [at 9.22 µM]
Cc1nnc(SCc2nc3sc4c(c3c(=O)[nH]2)CCCC4)[nH]c1=O,"inconclusive: 5.62 µM [inhibitor, single point]",–
Fc1cccc(Nc2ncnc3sc4c(c23)CCC4)c1,"inconclusive: 12.6 µM [inhibitor, partial curve]",–
NC(=O)c1ccc(NC(=O)c2cnc3ccccc3n2)cc1,–,inactive: -9.34% [at 9.22 µM]
CCN(CC(=O)Nc1cc(Cl)ccc1C)c1ncnc2sc(C)c(C)c12,inactive,–
O=C(CC1CCCCC1)N1CCCC(c2nc(-c3ccc(S(=O)(=O)N4CCCC4)cc3)no2)C1 (stereo not drawn),"inconclusive: 35.5 µM [inhibitor, single point]",–
COc1cc(/C=C/c2[nH]c(=O)[nH]c(=O)c2[N+](=O)[O-])ccc1OCCC(C)C,"inconclusive: 10 µM [inhibitor, partial curve, poor fit]",–
Cc1[nH]nc(SCC(=O)NCc2ccccc2)c1[N+](=O)[O-],inactive,–

SMILES,Potency,"activity change, negative = inhibition"
COc1ccccc1C(=O)Nc1sc(C(=O)N2CCCC2)c(C)c1C#N,"inconclusive: 3.55 µM [inhibitor, single point]",–
CCc1ccccc1N(CC)C(=O)CCc1nc(-c2ccc(C)cc2)no1,active: 10 µM,–
COc1ccc2c(c1)c1nnc(SCC(=O)N3C(C)CCCC3C)nc1n2C (stereo not drawn),inactive,–
CC1=C(C(=O)OC(C)C)C(c2ccc(F)cc2)NC(=O)N1 (stereo not drawn),inactive,–
Cc1cccc(Nc2c([N+](=O)[O-])cc(C(=O)N3CC(=O)Nc4ccccc43)cc2[N+](=O)[O-])c1,"inconclusive: 6.31 µM [activator, single point]",–
Cc1nc2c(cc1C(=O)N/N=C/c1ccc(O)c(O)c1)c(=O)n(C)c(=O)n2C,"inconclusive: 3.98 µM [activator, full curve]",–
O=C(CN(c1ccc(F)cc1)S(=O)(=O)c1ccccc1)NCc1ccco1,"inconclusive: 1.26 µM [activator, single point]",–
Cn1cccc1C(=O)NC(=O)CSc1cccc[n+]1[O-],inactive,–
CC(=O)Nc1ccc(NC(=O)COc2ccc([N+](=O)[O-])cc2)cc1,inactive,–
Cc1cccnc1NC(=S)Nc1ccc(Cl)c(Cl)c1,–,inactive: 14.9% [at 9.22 µM]
O=S(=O)(c1ccc(Cl)cc1Br)N1CCCCC1,"inconclusive: 1.58 µM [inhibitor, full curve]",–
S=C(c1ccc(-c2ccc(Cl)cc2)o1)N1CCCCC1,"inconclusive: 3.55 µM [inhibitor, partial curve]",–
CC(C)OC(=O)CSc1ncnc2c1cnn2-c1ccccc1,"inconclusive: 35.5 µM [activator, single point]",–
COc1ccc(-n2nnnc2S(=O)(=O)CC(=O)N2CCCCC2)cc1,"inconclusive: 31.6 µM [inhibitor, single point]",–
COc1ccccc1N1C(=O)S/C(=C\c2cc(C)n(C)c2C)C1=O,"inconclusive: 39.8 µM [inhibitor, partial curve, poor fit]",–
CN(C)[C@@H]1C(=O)C(C(N)=O)=C(O)[C@@]2(O)C(=O)C3=C(O)c4c(O)ccc(Cl)c4[C@@H](O)[C@H]3C[C@@H]12,"inconclusive: 25.1 µM [inhibitor, partial curve]",–
CC(=O)c1c(C)[nH]c(C(=O)Nc2cccc(S(=O)(=O)N3CCOCC3)c2)c1C,"inconclusive: 7.94 µM [activator, partial curve]",–
C[C@@H]1c2cccc(O)c2C(O)=C2C(=O)[C@@]3(O)C(O)=C(C(N)=O)C(=O)[C@@H](N(C)C)[C@@H]3[C@@H](O)[C@@H]21,inactive,–
COCCNC(=O)c1cc(S(=O)(=O)N(C)c2ccccc2OC)ccc1C,–,inactive: 24.9% [at 9.22 µM]
Fc1ccc(-c2csc3ncnc(Nc4ccc(N5CCOCC5)cc4)c23)cc1,"inconclusive: 35.5 µM [inhibitor, single point]",–
CCOC(=O)CSc1nnc(CNC(=O)c2cccs2)n1-c1cccc(C)c1,inactive,–
CN1CCN(S(=O)(=O)c2ccc(N3CCc4ccccc4C3)nc2)CC1,"inconclusive: 35.5 µM [inhibitor, single point]",–

# 3 compounds drawn at random from the list so far, as already listed:
SMILES,Potency,"activity change, negative = inhibition"
CCOC(=O)CSc1nnc(CNC(=O)c2cccs2)n1-c1cccc(C)c1,inactive,–
CC(=O)c1c(C)[nH]c(C(=O)Nc2cccc(S(=O)(=O)N3CCOCC3)c2)c1C,"inconclusive: 7.94 µM [activator, partial curve]",–
CN(C)Cc1ccccc1C1(O)c2ccccc2CSc2ccccc21 (stereo not drawn),"inconclusive: 35.5 µM [inhibitor, single point]",–
